Test results published in the supplement of paper PMC10338343.
± gives the standard deviation. The list shows a part of the results, in another mix than the full data. Many of these values have a large error.

The sequences below were run on EfPiwi piRISC loaded with piRNA #1 (26 nt) (assay: pre-steady-state target cleavage rate (min^-1); guide: piRNA #1 5'p-UGAGGUAGUAGGUUGUAUAGUAUCCA; MIWI and MILI are mouse PIWI proteins and EfPiwi is from a freshwater sponge; tags in brackets are library labels; higher = faster piRNA-guided slicing of the target). Settings: auxiliary factor: 500 nM Ephydatia muelleri Gtsf1.
In short: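 A transcribed, DNA-blocked target RNA library (0.1 nM) and 1 nM active affinity-purified piRISC bearing one synthetic guide were incubated in HEPES–potassium acetate buffer at 33 °C for 0–8 or 0–960 min, either with or without 500 nM GTSF1 partner protein. Uncleaved targets were sequenced, normalised to depth and to weakly complementary targets, and pooled over three trials, with k3 capped at 0.0001 min^-1. The pre-steady-state cleavage rate was derived with a burst-and-steady-state fit.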

Q: With GGAGACCUAACUAUACAACGUACUACGUCA as the sequence, how does the “pre-steady-state target cleavage rate” value read?
A: Its value is 0.00291 ± 0.0026.

Q: Which “pre-steady-state target cleavage rate” value does the source give for GGAGAGGAUACUUUACAAGCUACUACCUCA here?
A: The value was 0.00384 ± 0.0021.

Q: GGAGACCUAUCUAUACAAGCUACUAGCUCA was tested. Which “pre-steady-state target cleavage rate” value did it give?
A: Its value is 0.00368 ± 0.0039.

Q: Which “pre-steady-state target cleavage rate” value does the source give for GGAGACCUUAGUAUACAACCUACUACCACA here?
A: The value was 0.00359 ± 0.0037.

Q: How did the “pre-steady-state target cleavage rate” value turn out when GGAGACCUAUGAUAUGUUCCUACUACCUACA was run?
A: The value was 0.000101 ± 0.025.

Q: For GGAGAGGAUACAAUACAACCUACAACCUCA, which “pre-steady-state target cleavage rate” value is on record?
A: The value was 0.00231 ± 0.0018.

Q: For GGAGACCUUACUAUACAACCUACUAGCUCA, which “pre-steady-state target cleavage rate” value is on record?
A: The value was 0.00255 ± 0.0017.

Q: GGAGACCAUACUAAACAACCUACUACCUCA was tested. Which “pre-steady-state target cleavage rate” value did it give?
A: Its value is 0.0127 ± 0.0048.

Q: For GGAGUGCAAACUAUACAACCUACUACCUCA, which “pre-steady-state target cleavage rate” value is on record?
A: The value was 0.00676 ± 0.0044.

Q: Which “pre-steady-state target cleavage rate” value does the source give for GGAGUGGAAACUAUACAACCUACUACCUGA here?
A: Its value is 0.00283 ± 0.0023.

Q: For GGAGACCUAACUUUACAAGCUACUACCUCA, which “pre-steady-state target cleavage rate” value is on record?
A: The value was 0.0019 ± 0.004.

Q: With GGAGUGGAUACUAUAUAACCUACUACCUCA as the sequence, how does the “pre-steady-state target cleavage rate” value read?
A: The value was 0.117 ± 0.045.

Q: With GGAGUCGAUACUUUACAACCUACUACCUCA as the sequence, how does the “pre-steady-state target cleavage rate” value read?
A: The value was 0.00331 ± 0.0033.

Q: How did the “pre-steady-state target cleavage rate” value turn out when GGAGACCAUAUCUAUACAACCUACUACCUCA was run?
A: The value was 0.124 ± 0.051.

Q: GGAGACCUAUGUAUUGAACCUACUACCUCA was tested. Which “pre-steady-state target cleavage rate” value did it give?
A: The value was 0.0012 ± 0.0062.

Q: With GGAGACCUAACUAUACUACCUACUACCUGA as the sequence, how does the “pre-steady-state target cleavage rate” value read?
A: The value was 0.00244 ± 0.0037.

Q: How did the “pre-steady-state target cleavage rate” value turn out when GGAGAGGAUACUAUAGCAACCUACUACCUCA was run?
A: Its value is 0.0429 ± 0.019.

Q: GGAGAGGAUACUAUUGAACCUACUACCUCA was tested. Which “pre-steady-state target cleavage rate” value did it give?
A: The value was 0.00275 ± 0.0046.

Q: How did the “pre-steady-state target cleavage rate” value turn out when GGAGAGGAUACUAUACAACCUACUACAUCA was run?
A: The value was 0.00573 ± 0.0027.

Q: Which “pre-steady-state target cleavage rate” value does the source give for GGAGACCUAUGUAUACAUCCUACUACCACA here?
A: Its value is 0.00047 ± 0.011.

Q: For GGAGAGGAUGACUAUACAACCUACUACCUCA, which “pre-steady-state target cleavage rate” value is on record?
A: The value was 0.01 ± 0.006.

Q: With GGAGACCUAACUAUUCAAGCUACUACCUCA as the sequence, how does the “pre-steady-state target cleavage rate” value read?
A: Its value is 0.000909 ± 0.0054.

Q: GGAGACCUAUCUAUACAACGUACUACGUCA was tested. Which “pre-steady-state target cleavage rate” value did it give?
A: Its value is 0.00215 ± 0.0025.

Q: Which “pre-steady-state target cleavage rate” value does the source give for GGAGACCUAUGUAUACAAGGUACUACCUCA here?
A: The value was 0.00169 ± 0.004.

Q: For GGAGACGAUACUAUACAACCUACAUACCUCA, which “pre-steady-state target cleavage rate” value is on record?
A: Its value is 0.00413 ± 0.0021.

Q: With GGAGACCUAUGUAUACAACCUACUAGCACA as the sequence, how does the “pre-steady-state target cleavage rate” value read?
A: The value was 0.000224 ± 0.017.

Q: How did the “pre-steady-state target cleavage rate” value turn out when “GGAGACCUUACUAUACAACCUACUACCUCA [g2:g22:cont:t1A]” was run?
A: The value was 0.0238 ± 0.0084.

Q: With GGAGACCAUCUAUACAACCUACUACCUCA as the sequence, how does the “pre-steady-state target cleavage rate” value read?
A: The value was 0.00903 ± 0.0054.

Q: For GGAGACCAUCCUAUACAACCUACUACCUCA, which “pre-steady-state target cleavage rate” value is on record?
A: Its value is 0.01 ± 0.006.

Q: GGAGACCUUACUAUACAUGCUACUACCUCA was tested. Which “pre-steady-state target cleavage rate” value did it give?
A: The value was 0.00213 ± 0.004.

Q: For GGAGACGAUUACUAUACAACCUACUACCUCA, which “pre-steady-state target cleavage rate” value is on record?
A: Its value is 0.0159 ± 0.0066.

Q: With GGAGACCUAACUAUACAAGCUACAACCUCA as the sequence, how does the “pre-steady-state target cleavage rate” value read?
A: Its value is 0.000697 ± 0.0039.

Q: With GGAGUCGAUACUAUAGAACCUACUACCUCA as the sequence, how does the “pre-steady-state target cleavage rate” value read?
A: The value was 0.00147 ± 0.0017.

Q: For GGAGACCAUACUUAUCAACCUACUACCUCA, which “pre-steady-state target cleavage rate” value is on record?
A: The value was 0.00305 ± 0.0037.

Q: GGAGAGGAUACUUUACAACCAACUACCUCA was tested. Which “pre-steady-state target cleavage rate” value did it give?
A: Its value is 0.00291 ± 0.0016.

Q: How did the “pre-steady-state target cleavage rate” value turn out when GGAGAGCAUACUAUACAACCUUCUACCUCA was run?
A: The value was 0.00445 ± 0.0027.

Q: How did the “pre-steady-state target cleavage rate” value turn out when GGAGUGGAUACUAUAGUACCUACUACCUCA was run?
A: The value was 0.00341 ± 0.0035.

Q: For GGAGAGGAUAGUAUACAACCUUCUACCUCA, which “pre-steady-state target cleavage rate” value is on record?
A: Its value is 0.00304 ± 0.0024.

Q: Which “pre-steady-state target cleavage rate” value does the source give for GGAGACGAUACUAUACAACCUACAUGCUCA here?
A: The value was 0.00271 ± 0.0034.

Q: How did the “pre-steady-state target cleavage rate” value turn out when GGAGACCAUACUAUACAACCAACUACCACA was run?
A: Its value is 0.00394 ± 0.0043.
